Assay results taken from ChEMBL document CHEMBL5030540 (J Med Chem, 2021).

Sequences of proteins named here, by UniProt entry; tags and fusion partners are left off.
UniProt P42866, whole entry: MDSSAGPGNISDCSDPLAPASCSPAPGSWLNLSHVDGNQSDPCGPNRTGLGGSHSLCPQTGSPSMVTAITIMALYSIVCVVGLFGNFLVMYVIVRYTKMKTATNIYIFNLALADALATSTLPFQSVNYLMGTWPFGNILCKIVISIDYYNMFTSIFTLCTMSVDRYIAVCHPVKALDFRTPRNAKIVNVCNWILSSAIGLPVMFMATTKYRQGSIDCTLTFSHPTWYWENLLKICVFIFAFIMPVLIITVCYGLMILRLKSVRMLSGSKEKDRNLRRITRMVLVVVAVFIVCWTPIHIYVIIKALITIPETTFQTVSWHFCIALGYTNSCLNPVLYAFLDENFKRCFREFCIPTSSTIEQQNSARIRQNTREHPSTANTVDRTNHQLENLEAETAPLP

Target: Mu-type opioid receptor (Mus musculus) (UniProt P42866)
Experiment: Partial agonist activity at mouse MOR expressed in HEK293T cells assessed as Nb33 recruitment by BRET assay relative to control
Format: functional, cell-based
Procedure, shortened: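 HEK293T cells transfected with murine MOR-NanoLuc (1 μg) and Nb33-Venus (4 μg) using PEI and used 48 h later. Cells in PBS given coelenterazine H (5 μM), ligand added at 5 min, BRET read 10 min later. Three-parameter fit; ≥3 independent trials in triplicate.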

CO[C@@]12CC[C@@]3(C[C@@H]1[C@@](C)(O)C(C)(C)C)[C@H]1Cc4ccc(O)c5c4[C@@]3(CCN1CC1CC1)[C@H]2O5
Emax: 24%
